This is an account of results in PubChem BioAssay AID256 (DTP/NCI, 2004).

The list shows only some results of the screen, not a fair sample: it gathers tests that were run many times, whatever their T/C, doses with no T/C, and many T/C values between a quarter and a half above the control. Other doses and runs of a compound stand elsewhere. T/C is the treated group as % of the vehicle group. Some doses have a count of surviving animals in place of a T/C: the source files T/C as zero there, which appears to mark a toxic dose or a test without result, not a measured value. Some survivor counts are full or nearly so, which does not show that the dose was tolerated: the source hardly ever lists a survival T/C far under the control, and the zero likely stands for such cases as well. Survivors were counted at the toxicity check, usually on the fifth day, unless a day is given; later deaths do not show. Schedule codes are those of the source, taken here to give the interval after Q, in days (D) or hours (H), and the number of doses after X. Some schedules carry Z or #; the key to these is not given. Some entries were tested several times; the results are listed from low to high. Signs of the kind (2×) stand for listed records that agree. For survival time, this PubChem deposit counts one and a half times the control or more as active, and values a quarter to a half above the control carry no call in these data; other NCI protocols may use other cut-offs. Some T/C values are followed by the survivors on the day toxicity was checked, most often the fifth; without a count, all were alive then.

This test concerns CD2F1 mice, L1210 leukemia ip, survival T/C. In words: NCI In Vivo Anticancer Drug Screen. Data for tumor model L1210 Leukemia (intraperitoneal) in CD2F1 (CDF1) mice. The following applies: higher T/C = longer survival. The gist of the method:
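Tumor-bearing mice (transplanted tumor) were split into treated and vehicle control groups, and the measured endpoint of each treated group was divided by that of its vehicle controls.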

Setting [1] is: T/C endpoint: mean survival time, dose: 75.0 mg/kg/injection, schedule: Q01DX001 (ip), vehicle: saline.
[2] abbreviates: T/C endpoint: mean survival time, dose: 50.0 mg/kg/injection, schedule: Q04DX003 (ip), vehicle: Klucel (hydroxypropylcellulose) (HPC).
The mark [3] stands for this setting: T/C endpoint: mean survival time, dose: 100.0 mg/kg/injection, schedule: Q04DX003 (ip), vehicle: Klucel (hydroxypropylcellulose) (HPC).
Where [4] appears, read: T/C endpoint: mean survival time, dose: 400.0 mg/kg/injection, schedule: Q01DX009 (ip), vehicle: saline with Tween-80.
Where [5] appears, read: T/C endpoint: mean survival time, dose: 100.0 mg/kg/injection, schedule: Q04DX003 (ip), vehicle: saline with Tween-80.
The mark [6] stands for this setting: T/C endpoint: mean survival time, dose: 200.0 mg/kg/injection, schedule: Q04DX003 (ip), vehicle: saline with Tween-80.
[7] abbreviates: T/C endpoint: mean survival time, dose: 400.0 mg/kg/injection, schedule: Q04DX003 (ip), vehicle: saline with Tween-80.
Setting [8] is: T/C endpoint: mean survival time, dose: 400.0 mg/kg/injection, schedule: Q01DX009 (ip), vehicle: saline.
Setting [9] is: T/C endpoint: mean survival time, dose: 20.0 mg/kg/injection, schedule: Q01DX009 (ip), vehicle: saline with Tween-80.
The mark [10] stands for this setting: T/C endpoint: mean survival time, dose: 100.0 mg/kg/injection, schedule: Q01DX009 (ip), vehicle: saline.
Setting [11] is: T/C endpoint: mean survival time, dose: 400.0 mg/kg/injection, schedule: Q01DX009 (ip), vehicle: Klucel (hydroxypropylcellulose) (HPC).
Where [12] appears, read: T/C endpoint: mean survival time, dose: 150.0 mg/kg/injection, schedule: Q01DX001 (ip), vehicle: saline.
[13] abbreviates: T/C endpoint: mean survival time, dose: 300.0 mg/kg/injection, schedule: Q01DX001 (ip), vehicle: saline.

For `O=[N+]([O-])C(Br)(CO)CO`, the survivor count by setting is: (T/C endpoint: mean survival time, dose: 37.5 mg/kg/injection, schedule: Q01DX001 (ip), vehicle: saline) 0 of 6; under setting [1], 0 of 6.
As to `Cc1ccc(NC(=O)N(CCCl)N=O)c(C)c1`, the T/C is, setting by setting: (T/C endpoint: mean survival time, dose: 1.9 mg/kg/injection, schedule: Q01DX009 (ip), vehicle: other) 135 % of control; (T/C endpoint: mean survival time, dose: 2.9 mg/kg/injection, schedule: Q01DX009 (ip), vehicle: other) 141 % of control; (T/C endpoint: mean survival time, dose: 22.0 mg/kg/injection, schedule: Q01DX001 (ip), vehicle: other) 140 % of control.
On to `CC(O)C(=O)O.CCCCOC(=O)CC(O)(CC(=O)OCCCC)C(=O)OCCCC.[Cl-].[Cl-].[NH2-].[NH2-].[Pt+4]`, for which the T/C is 148 % of control (T/C endpoint: mean survival time, dose: 12.5 mg/kg/injection, schedule: Q04DX003 (ip), vehicle: Klucel (hydroxypropylcellulose) (HPC)); 136, 139, 146 % of control (T/C endpoint: mean survival time, dose: 25.0 mg/kg/injection, schedule: Q04DX003 (ip), vehicle: Klucel (hydroxypropylcellulose) (HPC)); 127 % of control under setting [2]; 138 and 146 % of control under setting [3]. Besides, the survivor count is 3 of 6 under setting [2]; 0 of 6 and 6 of 6 under setting [3]; 0 of 6 (2×), 5 of 6, 6 of 6 (T/C endpoint: mean survival time, dose: 200.0 mg/kg/injection, schedule: Q04DX003 (ip), vehicle: Klucel (hydroxypropylcellulose) (HPC)); 6 of 6 (T/C endpoint: mean survival time, dose: 400.0 mg/kg/injection, schedule: Q04DX003 (ip), vehicle: Klucel (hydroxypropylcellulose) (HPC)).
`C[n+]1ccc2ccccc2c1CCCc1nccc2ccccc12`: the survivor count is, setting by setting: (T/C endpoint: mean survival time, dose: 100.0 mg/kg/injection, schedule: Q04DX003 (ip), vehicle: saline sonified) 1 of 6; (T/C endpoint: mean survival time, dose: 200.0 mg/kg/injection, schedule: Q04DX003 (ip), vehicle: saline sonified) 0 of 6; (T/C endpoint: mean survival time, dose: 400.0 mg/kg/injection, schedule: Q04DX003 (ip), vehicle: saline sonified) 0 of 6.
In the case of `CC1NC(=O)OC12CCCCC2` (stereo unspecified), the survivor count under setting [4] is recorded as 3 of 6.
As to `Cc1ccnc(N)c1.[Cl-].[Cl-].[Cl-].[Cl-].[Pt+2]`, the survivor count is, setting by setting: under setting [5], 0 of 4; under setting [6], 0 of 4; under setting [7], 0 of 4.
In the case of `O=c1[nH]cc[nH]1`, under setting [8], the T/C is 132 % of control.
As for `Cc1nc(N)nc(N)c1N1CCN(c2ccc(C(=O)NC(C(=O)O)C(=O)O)cc2)CC1`, the T/C is, setting by setting: (T/C endpoint: median survival time, dose: 1.88 mg/kg/injection, schedule: Q01DX005 (ip), vehicle: Klucel + Tween-80) 131 % of control; (T/C endpoint: median survival time, dose: 3.75 mg/kg/injection, schedule: Q01DX005 (ip), vehicle: Klucel + Tween-80) 142 % of control. Further, the survivor count (T/C endpoint: median survival time, dose: 30.0 mg/kg/injection, schedule: Q01DX005 (ip), vehicle: Klucel + Tween-80) was 6 of 6.
Consider `Cc1cc([NH-])c([NH-])cc1C.[Cl][Pt+2][Cl]`, for which the T/C is 130 and 137 % of control (T/C endpoint: mean survival time, dose: 5.0 mg/kg/injection, schedule: Q01DX009 (ip), vehicle: saline with Tween-80); 128 % of control under setting [9]. For the same compound, the survivor count under setting [9] is given as 6 of 8; the survivor count (T/C endpoint: mean survival time, dose: 40.0 mg/kg/injection, schedule: Q01DX009 (ip), vehicle: saline with Tween-80) was 4 of 8 and 7 of 8.
`CCCCCCCCCCCCOC(=O)C[n+]1cccc(C(=O)Nc2ccc(Cl)cc2)c1`: the survivor count is 3 of 6 (T/C endpoint: mean survival time, dose: 100.0 mg/kg/injection, schedule: Q01DX009 (ip), vehicle: saline with Tween-80); 1 of 6 under setting [6]; 0 of 6 under setting [7].
In the case of `CCOC(=O)C(=O)O`, the survivor count under setting [10] is reported as 1 of 6 and the survivor count under setting [8] is 6 of 6.
For `O=C(O)c1ccc(C(=O)O)c2c(C(=O)O)ccc(C(=O)O)c12`, under setting [4], the survivor count is 4 of 6.
Consider `Cc1cc(NC(=O)Nc2ccc(C3=NCCCN3)cc2)ccc1NC(=O)Nc1ccc(C2=NCCCN2)cc1`, for which the survivor count (T/C endpoint: mean survival time, dose: 62.0 mg/kg/injection, schedule: Q01DX Z (ip), vehicle: water) is on record as 0 of 6; the survivor count (T/C endpoint: mean survival time, dose: 125.0 mg/kg/injection, schedule: Q01DX Z (ip), vehicle: water) is 1 of 6; the survivor count (T/C endpoint: mean survival time, dose: 250.0 mg/kg/injection, schedule: Q01DX Z (ip), vehicle: water) was 0 of 6; the survivor count (T/C endpoint: mean survival time, dose: 500.0 mg/kg/injection, schedule: Q01DX Z (ip), vehicle: water) is given as 0 of 6.
As for `O=C(Nc1ccccc1C(F)(F)F)OCCOc1ccccc1Cl`, the survivor count (T/C endpoint: mean survival time, dose: 200.0 mg/kg/injection, schedule: Q01DX009 (ip), vehicle: Klucel (hydroxypropylcellulose) (HPC)) is 3 of 3.
As for `CN(C)N=Nc1ccc(C#N)cc1`, the survivor count is on record as 2 of 6 (T/C endpoint: mean survival time, dose: 177.0 mg/kg/injection, schedule: Q01DX009 (ip), vehicle: Klucel (hydroxypropylcellulose) (HPC)); 0 of 6 (T/C endpoint: mean survival time, dose: 266.0 mg/kg/injection, schedule: Q01DX009 (ip), vehicle: Klucel (hydroxypropylcellulose) (HPC)); 0 of 6 under setting [11]; 0 of 6 (T/C endpoint: mean survival time, dose: 600.0 mg/kg/injection, schedule: Q01DX009 (ip), vehicle: Klucel (hydroxypropylcellulose) (HPC)).
Take `O/N=C(/Cl)c1ccccn1`: the survivor count (T/C endpoint: mean survival time, dose: 15.0 mg/kg/injection, schedule: Q01DX001 (ip), vehicle: saline) is recorded as 0 of 6; the survivor count (T/C endpoint: mean survival time, dose: 30.0 mg/kg/injection, schedule: Q01DX001 (ip), vehicle: saline) is reported as 0 of 6; the survivor count under setting [1] was 0 of 6; the survivor count under setting [12] is reported as 0 of 6; the survivor count under setting [13] is on record as 0 of 6.
For `CN1CCOc2ccccc2OCCOCCOc2ccccc2OCC1`, the survivor count under setting [11] is 0 of 6.
Regarding `Nc1nc(-c2cccc([N+](=O)[O-])c2)c(N=Nc2cccc([N+](=O)[O-])c2)s1`, the survivor count (T/C endpoint: mean survival time, dose: 200.0 mg/kg/injection, schedule: Q01DX001 (ip), vehicle: saline with Tween-80) is listed as 6 of 6.
Take `CC(C)(C=O)CNC(C)(C)C`: under setting [7], the survivor count is given as 4 of 6.
`CCOC(=O)C1=C(C)NC(C)=C(C(=O)OCC)C1c1cccc([N+](=O)[O-])c1`: the survivor count under setting [11] was 3 of 6.
Turning to `COC1=CCC2C(=O)C=CC(=O)C2C1` (stereo unspecified), where the note is “T/C endpoint: mean survival time, dose: 400.0 mg/kg/injection, schedule: Q01DX005 (ip), vehicle: Klucel (hydroxypropylcellulose) (HPC)”, the survivor count is recorded as 0 of 6.
Take `COC(C[P+](Cc1ccccc1)(c1ccccc1)c1ccccc1)OC`: the survivor count is, setting by setting: under setting [12], 0 of 6; under setting [13], 0 of 6.
For `CCN(CC)Cc1ccc(Nc2cc(C)nc(/N=C(\N)Nc3ccc(Cl)c(Cl)c3)n2)cc1`, the survivor count by setting is: (T/C endpoint: mean survival time, dose: 50.0 mg/kg/injection, schedule: Q04DX003 (ip), vehicle: saline with Tween-80) 5 of 6; under setting [5], 5 of 6; under setting [6], 1 of 6; under setting [7], 0 of 6.
Regarding `O=c1sc(N=Nc2ccccc2)nn1-c1ccccc1`, the survivor count (T/C endpoint: mean survival time, dose: 400.0 mg/kg/injection, schedule: Q04DX003 (ip), vehicle: saline) was 6 of 6.
In the case of `N/C(=N/O)NO`, the T/C (T/C endpoint: median survival time, dose: 400.0 mg/kg/injection, schedule: Q01DX005 (ip), vehicle: saline) was 131 [5 of 6 alive] and 142 % of control. Moreover, the survivor count (T/C endpoint: median survival time, dose: 800.0 mg/kg/injection, schedule: Q01DX005 (ip), vehicle: saline) is 0 of 6.
As to `CCCCCCn1ncc(=O)[nH]c1=O`, the T/C is 92, 93, 98, 104 % of control (T/C endpoint: mean survival time, dose: 50.0 mg/kg/injection, schedule: Q01DX009 (ip), vehicle: saline) and 93, 95, 102, 120 % of control under setting [10].
Consider `O=[N+]([O-])c1cccn2nc(C3OC(CO)C(O)C3O)nc12` (stereo unspecified), for which the survivor count (T/C endpoint: mean survival time, dose: 200.0 mg/kg/injection, schedule: Q01DX005 (ip), vehicle: water) is given as 2 of 6.
For the compound `CN(C)CCNc1ccc(O)c2c1C(=O)c1ccccc1C2=O`, the T/C (T/C endpoint: mean survival time, dose: 160.0 mg/kg/injection, schedule: Q01DX009 (ip), vehicle: saline with Tween-80) was 139 % of control.
